Laboratory results taken from PMC8375061.
These are yes or no findings as the source states them, for the method shown. Binding seen in cells or lysates may run through a third protein. A yes stands for co-enrichment or nearness to the bait. Other partners may have been found. No binding means not detected with the bait.

B1: legumain (enzyme, UniProt Q99538 18-323)
chain: VPIDDPEDGGKHWVVIVAGSNGWYNYRHQADACHAYQIIHRNGIPDEQIVVMMYDDIAYSEDNPTPGIVINRPNGTDVYQGVPKDYTGEDVTPQNFLAVLRGDAEAVKGIGSGKVLKSGPQDHVFIYFTDHGSTGILVFPNEDLHVKDLNETIHYMYKHKMYRKMVFYIEACESGSMMNHLPDNINVYATTAANPRESSYACYYDEKRSTYLGDWYSVNWMEDSDVEDLTKETLHKQYHLVKSHTNTSHVMQYGNKTISTMKVMQFQGMKRKASSPVPLPPVTHLDLTPSPDVPLTIMKRKLMNTN
B2: human lysozyme (enzyme, UniProt P61626 19-148)
chain: KVFERCELARTLKRLGMDGYRGISLANWMCLAKWESGYNTRATNYNAGDRSTDYGIFQINSRYWCNDGKTPGAVNACHLSCSALLQDNIADAVACAKRVVRDPQGIRAWVAWRNRCQNRDVRQYVQGCGV

Target: recombinant LprI_01601 from Campylobacter concisus ESOS44-1 (Campylobacter concisus ESOS44-1)
Test: affinity purification with mass spectrometry; His-tagged LprI_01601 as bait, incubated with primary human macrophage non-detergent cell lysates, precipitated with magnetic bead conjugated anti-His-tag monoclonal antibody; fractions analysed by LC/MS-MS; repeated twice; negative control anti-His-tag IP without LprI_01601; only the target purified

| Binder | binding |
| --- | --- |
| B1 | binds |
| B2 | no binding |
